The experiment is described as follows: qHTS Assay for Lipid Storage Modulators in Drosophila S3 Cells.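 As to cell number change: cells counted by Cell Tracker Red CMTPX staining in the red channel.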 To be noted: BODIPY lipid droplet fluorescence, 18-24 h; for cell number change: measured here: cell count max response, cells fed with added oleic acid. The method in brief:
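Laser-scanning cytometry quantifies lipid droplet accumulation (500–530 nm total intensity; droplet/cell object ratio) in oleic acid-fed (400 uM added) Drosophila S3 cells treated with a concentration series. 20 uM Triacsin C defined 100% inhibition.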

Where [1] appears, read: measured here: cell number channel AC50, cells fed with added oleic acid.
[2] abbreviates: measured here: lipid fluorescence (Fed channel) AC50, cells fed with added oleic acid.

The source of these data is PubChem BioAssay AID2685 (National Center for Advancing Translational Sciences (NCATS), 2010).

This is one part of the list. Further columns of the screen follow, without active or inactive calls. The list favours compounds with an active or inconclusive main result. Words in brackets tell the shape of the fitted curve; partial curves, single points and poor fits give uncertain potencies.

What is called AC50 is the midpoint of the concentration-response curve, whichever way the signal moves. Low readings indicate greater potency, high ones weaker potency.

Take `Nc1nc(CN2CCN(c3ccccc3F)CC2)nc(Nc2ccc3c(c2)OCCO3)n1`: the cell number change was -32.3%. The AC50 under setting [1] is 1.3 µM [falling, single point].
On to `COC(=O)c1ccc(CSc2cc(C)c3cccc(C)c3n2)o1`, for which the cell number change was 39.1%. Under setting [2], the concentration at half-maximal activity (AC50) is 29.1 µM [rising, single point].
Regarding `O=C(NC1CCCC1)C1c2ccccc2C(=O)N1C1CCCCC1` (stereo not given), the cell number change is -16.9%. For the same compound, the AC50 under setting [2] is 14.6 µM [falling, partial curve, poor fit].
As for `COc1ccc(S(=O)(=O)N2CC=C(C(=O)Nc3ccc(NC(C)=O)cc3)CC2)cc1`, the cell number change was determined as 15.1%. For the same compound, the AC50 under setting [1] is 0.184 µM [rising, full curve, poor fit].
On to `Fc1cccc(Cl)c1Cn1nnc(-c2ccc(N3CCOCC3)cc2)n1`, for which the concentration at half-maximal activity (AC50) under setting [2] was 29.1 µM [rising, single point].
For `CN1CCN(S(=O)(=O)c2ccc(Nc3ccc(F)cc3)nc2)CC1`, the cell number change stood at 50.6%. Besides, the AC50 under setting [1] is 16.4 µM [rising, single point].
Turning to `CCCN1CCN(CCCNC(=O)Cn2cc3c(n2)CCCC3)CC1`, the cell number change was found to be 6.62%. Besides, the AC50 under setting [2] is 13 µM [falling, partial curve, poor fit].
On to `CCNC(=O)COC(=O)c1cccc(Br)c1`, for which the cell number change came to 5.3%. For the same compound, the concentration at half-maximal activity (AC50) under setting [2] was 0.411 µM [rising, full curve, poor fit].
For `O=C(Cn1ncc2c3ccccc3n(Cc3cccc(Cl)c3)c2c1=O)NCC1CCCO1` (stereo not given), the concentration at half-maximal activity (AC50) under setting [2] was 6.51 µM [rising, single point].
As to `O=S(=O)(c1cccs1)N1CCCc2ccccc21`, the cell number change amounted to 66.6%. The AC50 under setting [1] was 29.1 µM [rising, single point].
On to `Cn1c(=S)ccc2ccccc21`, for which the cell number change turned out to be 2.08%.
As to `CN(C)/C=C1/Nc2ccccc2C1=O`, the cell number change was found to be 7.29%. Also, under setting [2], the AC50 was 6.51 µM [falling, single point].
`CCCc1cc(C(=O)NCC(C)C)no1`: the cell number change was -3.57%. In addition, the AC50 under setting [2] was 0.82 µM [falling, full curve, poor fit].
With `CCOC(=O)N1CCN(C2CCCN(C(=O)c3ccccc3C(F)(F)F)C2)CC1` (stereo not given), the cell number change is -21%.
In the case of `COc1ccc(/C=N/NC(=O)c2cc3c(OC)ccc(OC)c3[nH]2)cc1O`, the cell number change is -70.6%. For the same compound, the AC50 under setting [1] was 29.1 µM [falling, single point]. Moreover, the AC50 under setting [2] is 20.6 µM [falling, single point].
As to `Cc1cc(C)nc(SCc2nnc(SCC(=O)N3CCOCC3)o2)n1`, the cell number change was determined as 4.87%. Further, the AC50 under setting [2] is 1.16 µM [rising, partial curve].
As for `Cc1ccc(Cl)cc1N1CCN(S(=O)(=O)c2cnc[nH]2)CC1`, the cell number change is -4.43%. In addition, under setting [2], the AC50 is 7.31 µM [rising, partial curve].
On to `COc1ccccc1C(=O)N/N=C(\C)CC(=O)Nc1ccccc1NC(C)=O`, for which the cell number change is -5.84%.
In the case of `O=c1c2ccccc2ncn1-c1ccccc1F`, the cell number change amounted to 9.79%. In addition, under setting [2], the AC50 was 0.0146 µM [rising, full curve, poor fit].
For `C=CCc1cc(C=O)cc(OCC)c1OCc1ccc(Cl)cc1`, the cell number change was determined as 4.29%. Under setting [2], the concentration at half-maximal activity (AC50) was 0.92 µM [rising, partial curve].
As for `COc1ccc(CNC(=O)C/C(C)=N/NC(=O)Cc2ccc(OC)cc2)cc1`, the cell number change was -40.6%. In addition, under setting [1], the AC50 was 0.13 µM [falling, full curve, poor fit].
For `Cc1c(C(=O)OCc2ccccc2)nnn1-c1nonc1N`, the cell number change is -4.67%. The half-maximal activity concentration (AC50) under setting [1] is 6.51 µM [falling, single point].
With `Cc1ccc(-c2ccc(C(=O)NCc3ccc(Cl)cc3)o2)c2ccccc12`, the cell number change worked out at 10.4%. In addition, the AC50 under setting [1] is 0.058 µM [rising, full curve, poor fit]. Further, the concentration at half-maximal activity (AC50) under setting [2] was 0.058 µM [rising, full curve, poor fit].
As for `COc1ccc2nc(SCCOC(=O)Nc3ccc(Cl)cc3)nc(C)c2c1`, the AC50 under setting [1] was 4.11 µM [rising, single point].
`O=C(O)c1ccc2c(c1)-c1nc3ccccc3n1C2=O`: the cell number change is -2.36%. Also, under setting [1], the half-maximal activity concentration (AC50) was 0.164 µM [rising, full curve, poor fit]. Besides, the AC50 under setting [2] was 2.91 µM [falling, partial curve].
With `CCOC(=O)N1CCN(Cc2nc(N)nc(Nc3ccc(Oc4ccccc4)cc3)n2)CC1`, the half-maximal activity concentration (AC50) under setting [1] is 0.58 µM [rising, single point] and the half-maximal activity concentration (AC50) under setting [2] was 18.4 µM [rising, single point].
Regarding `O=C(COc1ccc(S(=O)(=O)N2CCCCC2)cc1Cl)N1CCCC1`, the cell number change is -0.84%. Under setting [2], the AC50 was 2.31 µM [rising, single point].
With `Cc1csc(SCC(=O)NC(=O)NC(C)C)n1`, the cell number change was 8.55%. Besides, under setting [1], the AC50 was 0.058 µM [rising, full curve, poor fit].
Turning to `CC(C)CC(=O)NC(Nc1ccccc1F)C(Cl)(Cl)Cl` (stereo not given), the cell number change is -22.5%. Also, under setting [2], the concentration at half-maximal activity (AC50) was 32.6 µM [falling, partial curve].
Turning to `S=c1[nH]c(-c2ccccc2)cn1/N=C/c1cccs1`, the cell number change is -43.9%. Besides, under setting [1], the AC50 is 2.91 µM [falling, full curve]. In addition, under setting [2], the AC50 was 4.61 µM [falling, full curve].
For `CN(C)CCC1c2ccc(Cl)cc2CCc2cccnc21` (stereo not given) (tested in a mixture with another compound), the cell number change is 6.16%. In addition, under setting [2], the AC50 is 2.59 µM [rising, partial curve, poor fit].
In the case of `CCCCn1c(N)c(N(CC)C(=O)c2cc(CC)c(C)s2)c(=O)[nH]c1=O`, the cell number change is -5.22%.
In the case of `O=S(=O)(c1cccs1)N1CCN(CC(O)COc2cccc(Br)c2)CC1` (stereo not given), the cell number change turned out to be 39.2%. Besides, the AC50 under setting [1] is 20.6 µM [rising, single point].
Take `COc1ccc(OC)c(C2NC(=O)NC(C)=C2C(=O)OC2CCCCC2)c1` (stereo not given): the cell number change is -6.93%. For the same compound, the AC50 under setting [1] is 0.326 µM [rising, full curve, poor fit]. Moreover, under setting [2], the AC50 was 1.3 µM [rising, full curve].
`COc1cccc(C(=O)OC2CCCN(C)C2)c1` (stereo not given): the AC50 under setting [2] was 25.9 µM [falling, partial curve].
Take `CCCn1ncc2c(Nc3ccc(C)c(C)c3)ncnc21`: the cell number change came out at 7.66%. The concentration at half-maximal activity (AC50) under setting [2] is 3.26 µM [falling, partial curve].
With `CCn1c(C(C)NC(=O)Cc2ccccc2)nc2ccccc21` (stereo not given), the cell number change is 0.123%. Moreover, the AC50 under setting [2] is 29.1 µM [falling, single point].
With `Cc1ccc(NC(=O)CCC(=O)c2cccs2)c(O)c1`, the cell number change is -3.7%. Besides, the concentration at half-maximal activity (AC50) under setting [2] was 0.326 µM [falling, partial curve, poor fit].
`C=CCn1cc(C(C)=O)c(=O)[nH]c1=O`: the cell number change was determined as 3.13%. In addition, under setting [1], the half-maximal activity concentration (AC50) was 5.17 µM [falling, partial curve, poor fit].
